For the assay, the target named is human recombinant CD22 (PeproTech) (human) (UniProt P20273). Description: SPR (BIAcore), recombinant human CD22 immobilised on a CM5 chip, SM03 injected at 6 concentrations. In general terms: Surface plasmon resonance follows binding to a sensor surface in real time, without labels.

Amino acid sequences for entries named in this document (tags omitted). Residues count along the entry.
UniProt P20273, residues 20-687: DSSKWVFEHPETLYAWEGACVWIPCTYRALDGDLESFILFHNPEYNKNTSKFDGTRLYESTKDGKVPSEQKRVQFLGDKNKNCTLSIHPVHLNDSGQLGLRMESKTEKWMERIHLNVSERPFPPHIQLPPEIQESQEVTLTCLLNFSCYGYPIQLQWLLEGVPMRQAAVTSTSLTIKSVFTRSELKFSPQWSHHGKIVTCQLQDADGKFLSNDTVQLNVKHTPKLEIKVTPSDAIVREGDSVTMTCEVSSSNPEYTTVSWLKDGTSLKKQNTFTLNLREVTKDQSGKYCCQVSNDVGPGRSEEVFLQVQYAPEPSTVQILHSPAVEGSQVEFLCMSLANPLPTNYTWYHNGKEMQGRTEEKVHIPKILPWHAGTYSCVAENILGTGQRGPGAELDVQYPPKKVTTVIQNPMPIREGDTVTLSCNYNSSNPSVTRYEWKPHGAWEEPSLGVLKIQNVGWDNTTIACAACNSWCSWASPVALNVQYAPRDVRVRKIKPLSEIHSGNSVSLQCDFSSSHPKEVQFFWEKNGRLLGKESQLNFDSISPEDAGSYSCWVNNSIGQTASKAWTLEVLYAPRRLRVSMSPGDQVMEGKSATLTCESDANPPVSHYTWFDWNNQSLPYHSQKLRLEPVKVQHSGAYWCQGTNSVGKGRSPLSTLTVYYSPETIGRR

No constants are given. Whether binding was seen depends on the method and setting. Some entries that bind do so weakly or less than the wild type.

B1: SM03 (antibody, V domains shown)
VH: QVQLQESGGGLVKPGGSLKLSCAASGFAFSIYDMSWVRQTPEKRLEWVAYISSGGGTTYYPDTVKGRFTISRDNAKNTLYLQMSSLKSEDTAMYYCARHSGYGSSYGVLFAYWGQGTLVTVSS
VL: DIQLTQTTSSLSASLGDRVTISCRASQDISNYLNWYQQKPDGTVKLLIYYTSILHSGVPSRFSGSGSGTDYSLTISNLEQEDFATYFCQQGNTLPWTFGGGTKLEIKR
For B1, the binding entry was “binds”.

For the origin of these results see patent US20210380685A1.
